Data as given in patent publication US7691858B2, “Kinase inhibitors and methods of use thereof” (TargeGen, Inc., priority 2006, dated 2010).
For at least one compound, name, drawing or mass did not settle the structure.

Test system: T1, four isoforms of PI3K
T1 construct: rows headed: potency range over PI3K isoforms; other: pan-isoform profile
Test: PI3K isoform profiles
Format: biochemical
Conditions: pan-isoform profile; read-out: potency range over PI3K isoforms
Experimental: Identification of PI3K isoform-selective inhibitors.
Kinase assays: For PI3K assays, 40 μL reaction buffer (20 mM Tris, 4 mM MgCl2, 10 mM NaCl, pH 7.4) containing 50 μM D-myo-phosphatidylinositol 4,5-bisphosphate substrate (Echelon Biosciences, Salt Lake City, Utah) and the desired PI3K isoform (Upstate USA, Charlottesville, Va.) were aliquoted to 96 well plates; kinase concentrations were 250-500 ng/well, such that linear kinetics were achieved over 90 min. The compound to be tested was then added as 2.5 μL of a DMSO stock to final concentration range of 100 μM. to 1 nM. Reactions were initiated by addition of 10 μL of ATP to a final concentration of 3 μM, and after 90 min 50 μL of Kinase-Glo reagent (Promega, Madison, Wis.) added to quantify residual ATP levels; luminosity was measured using an Ultra 384 instrument (Tecan, Durham, N.C.). Control reactions omitting either test compound or substrate were also performed. IC50 values were derived from experimental data by non-linear curve fitting (Prism Version 4; GraphPad Software, San Diego, Calif.).

COC[C@H]1OC(=O)c2coc3c2[C@@]1(C)C1=C(C3=O)[C@@H]2CCC(=O)[C@@]2(C)C[C@H]1OC(C)=O [Wortmannin, reference compound] gave an IC50 of 55 to 147 nM.
